Where two headings read alike, the source gives them in different places. At least one compound was matched to its structure with a doubt left. Some of these results come from one statement about several compounds together.
Key:
Assay in all cases: Cell viability (MTS) assay, cell killing
Format in all cases: cell-based, human
A431 cells = system: A431 cells
Protocol: After treatment the cells were incubated for 72 hr at 37° C. before the cell viability was determined by a MTS-assay, performed according to the manufacturer's instruction (CellTiter 96® AQueous One Solution Cell Proliferation Assay, Promega). Briefly, the MTS solution was diluted 20× in DMEM without phenol red (PAN-Biotech GmbH) supplemented with 10% FBS. The cells were washed once with 200 μL/PBS well, after which 100 μL diluted MTS solution was added/well. The plate was incubated for approximately 20-30 minutes at 37° C. Subsequently, the OD at 492 nm was measured on a Thermo Scientific Multiskan FC plate reader (Thermo Scientific). For quantification the background signal of ‘medium only’ wells was subtracted from all other wells, before the cell viability percentage of treated/untreated cells was calculated, by dividing the background corrected signal of treated wells over the background corrected signal of the untreated wells (×100). […]
After treatment the cells were incubated for 72 hr at 37° C. before the cell viability was determined by a MTS-assay, performed according to the manufacturer's instruction (CellTiter 96® AQueous One Solution Cell Proliferation Assay, Promega). […] Subsequently, the optical density at 492 nm was measured on a Thermo Scientific Multiskan FC plate reader (Thermo Scientific). […]

HeLa cells = system: HeLa cells
Protocol: (§1) Cells were seeded in a 96 well plate at 5.000-10.000 c/w in 100 μL/well and incubated overnight at 37° C. […] The media was removed from the cell culture plate and replaced by 180 μL culture media, followed by the addition of 20 μL treatment-mix/well. […] In the case that endosomal acidification inhibitors (chloroquine (Sigma Aldrich) or bafilomycin A1 (Enzo Life Sciences)) were used, the cell culture media in step 1 of treatment was replaced by 180 μL media containing 1 μM chloroquine or 0.2 μM bafilomycin A1. The plate was incubated for 1 hour at 37° C., before the 10× treatment-mix samples were added. The remaining incubation and treatment steps were performed according to standard procedures known in the field.
(§2) After treatment the cells were incubated for 72 hr at 37° C. before the cell viability was determined by a MTS-assay, performed according to the manufacturer's instruction (CellTiter 96® AQueous One Solution Cell Proliferation Assay, Promega). Briefly, the MTS solution was diluted 20× in DMEM without phenol red (PAN-Biotech GmbH) supplemented with 10% FBS (PAN-Biotech GmbH). The cells were washed once with 200 μL PBS per well, after which 100 μL diluted MTS solution was added per well. The plate was incubated for approximately 20-30 minutes at 37° C. Subsequently, the optical density at 492 nm was measured on a Thermo Scientific Multiskan FC plate reader (Thermo Scientific). For quantification the background signal of ‘medium only’ wells was subtracted from all other wells, before the ratio of […].

JIMT-1 cells = system: JIMT-1 cells
Protocol: as §1, §2

A2058 cells = system: A2058 cells
[1] = read-out: IC50 (calculated on concentration SO1861), + fixed 5 pM cetuximab-saporin
[2] = read-out: IC50 (calculated on concentration SO1861), SO1861 or mAb-SO1861 titrated + fixed 50 pM trastuzumab-saporin
[3] = read-out: IC50 (calculated on concentration SO1861), + fixed 10 pM cetuximab-saporin

Work on `CC(=O)O[C@H]1[C@H](O[C@@H]2OC[C@@H](O)[C@H](O)[C@H]2O)[C@@H](O)[C@H](O[C@@H]2[C@H](O)[C@@H](O[C@@H]3O[C@@H](C)[C@H](O[C@@H]4OC[C@@H](O)[C@H](O[C@@H]5OC[C@@H](O)[C@H](O)[C@H]5O)[C@H]4O)[C@@H](O)[C@H]3O)[C@H](OC(=O)[C@]34CCC(C)(C)C[C@H]3C3=CC[C@@H]5[C@@]6(C)CC[C@H](O[C@H]7O[C@H](C(=O)O)[C@@H](O)[C@H](O[C@@H]8OC[C@@H](O)[C@H](O)[C@H]8O)[C@H]7O[C@@H]7O[C@H](CO)[C@H](O)[C@H](O)[C@H]7O)[C@@](C)(C=O)[C@@H]6CC[C@@]5(C)[C@]3(C)C[C@H]4O)O[C@@H]2C)O[C@@H]1C` [SO1861] yielded an IC50 (A431 cells; [1]) greater than 1000 nM, an IC50 (A431 cells; [2]) greater than 1000 nM and an IC50 (HeLa cells; [3]) of 1000 nM. It also gave an IC50 (HeLa cells; [2]) greater than 1000 nM, an IC50 (JIMT-1 cells; [1]) greater than 1000 nM and an IC50 (JIMT-1 cells; [2]) greater than 1000 nM. For the same molecule, the IC50 (A2058 cells; [3]) was greater than 1000 nM and the IC50 (A2058 cells; [2]) was greater than 1000 nM.

— patent US20230293708A1, “CONJUGATE OF SAPONIN AND SINGLE-DOMAIN ANTIBODY, PHARMACEUTICAL COMPOSITION COMPRISING SAID CONJUGATE, THERAPEUTIC USE THEREOF” (SAPREME TECHNOLOGIES B.V., priority 2020, published 2023)
